Source: article PMC3749962
Results are given in words; binding and its absence hold for the method and conditions named. Some entries that bind do so weakly or less than the wild type.

By UniProt entry, the sequences of proteins in these tests, tags left out. Residues count along the entry.
UniProt P61956: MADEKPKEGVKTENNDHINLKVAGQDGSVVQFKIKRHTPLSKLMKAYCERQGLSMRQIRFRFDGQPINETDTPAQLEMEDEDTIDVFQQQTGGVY
UniProt P55854, residues 1-92: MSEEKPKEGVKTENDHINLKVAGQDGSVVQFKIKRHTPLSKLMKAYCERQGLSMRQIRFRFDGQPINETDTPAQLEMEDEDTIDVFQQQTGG
UniProt P63165, residues 1-97: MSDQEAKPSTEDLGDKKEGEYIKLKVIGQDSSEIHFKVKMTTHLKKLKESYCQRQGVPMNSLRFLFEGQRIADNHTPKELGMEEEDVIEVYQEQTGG
UniProt F5HCV3: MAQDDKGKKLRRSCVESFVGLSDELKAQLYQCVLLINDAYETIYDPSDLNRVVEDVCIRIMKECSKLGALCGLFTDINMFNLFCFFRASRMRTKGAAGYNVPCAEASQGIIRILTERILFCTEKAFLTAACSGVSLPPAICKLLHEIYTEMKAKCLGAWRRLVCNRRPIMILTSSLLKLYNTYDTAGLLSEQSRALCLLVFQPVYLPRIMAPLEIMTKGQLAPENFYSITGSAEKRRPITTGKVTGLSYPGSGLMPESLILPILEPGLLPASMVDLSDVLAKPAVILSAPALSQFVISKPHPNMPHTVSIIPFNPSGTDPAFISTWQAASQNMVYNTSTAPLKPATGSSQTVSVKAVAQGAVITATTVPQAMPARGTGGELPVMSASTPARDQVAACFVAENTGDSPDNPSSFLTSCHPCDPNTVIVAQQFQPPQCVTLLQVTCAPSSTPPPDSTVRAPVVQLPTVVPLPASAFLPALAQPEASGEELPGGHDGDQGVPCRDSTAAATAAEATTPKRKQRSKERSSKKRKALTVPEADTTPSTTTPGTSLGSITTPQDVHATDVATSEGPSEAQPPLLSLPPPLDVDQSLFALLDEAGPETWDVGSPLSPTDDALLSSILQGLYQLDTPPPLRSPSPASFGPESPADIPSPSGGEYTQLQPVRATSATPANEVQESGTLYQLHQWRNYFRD

Legend:
Test in all cases: pull-down; both purified
[1] = molecular target: GST-SUMO-2 (human (cDNA from BCBL-1 cells)) (UniProt P61956)
[2] = molecular target: GST-SUMO-3 (human (cDNA from BCBL-1 cells)) (UniProt P55854)
[3] = molecular target: GST-SUMO-1 (human (cDNA from BCBL-1 cells)) (UniProt P63165)

With “Flag-K-Rta (KSHV K-Rta, wild type) (from UniProt F5HCV3 1-691)” the binding [1] was “binds”, the binding [2] was “binds” and the binding [3] was “no binding”.
